PubChem BioAssay AID1259254 | NCATS, 2017
Assay: 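Gene knock-downs that lead to re-replication, shown by excess G2 DNA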 (primary screen). Cell system: human HCT116 colorectal cancer cells. Knock-down reagent: single siRNA against human genes. Timing: 3 days. Measured: 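Nuclei stained with Hoechst and imaged; cell-cycle phase assigned by DNA content; G2 share scaled per plate, non-targeting siRNA 0%, GMNN siRNA 100%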. Scale: G2 robust z-score: higher = more G2 cells, more excess DNA replication. Hit rule: 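An siRNA counts as active if its G2 robust z-score lies at least 5 MADs above the screen median; here such calls match roughly 38% of GMNN control or more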.
The deposit covers about 59,000 reagents; this is a part drawn at random. About 1,550 of them (2.6%) count as active. 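G2 share is only a proxy for re-replication; each gene was hit by three separate siRNAs, and active genes were retested.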 Reagents against one gene are numbered here. Not all columns of the deposit are shown. No sequences are given here. Not given: the amount of reagent.

Gene	reagent no.	G2 robust z-score	activity call
RPL22 (ribosomal protein L22)	1	0.844	inactive
RPL22 (ribosomal protein L22)	2	-0.319	inactive
RPL22 (ribosomal protein L22)	3	0.365	inactive
ADA2 (adenosine deaminase 2)	1	-0.864	inactive
ADA2 (adenosine deaminase 2)	2	-0.849	inactive
ADA2 (adenosine deaminase 2)	3	1.97	inactive
COL1A1 (collagen type I alpha 1 chain)	1	-0.0972	inactive
COL1A1 (collagen type I alpha 1 chain)	2	-0.0228	inactive
COL1A1 (collagen type I alpha 1 chain)	3	1.13	inactive
ROPN1 (rhophilin associated tail protein 1)	1	3.77	inactive
ROPN1 (rhophilin associated tail protein 1)	2	0	inactive
ROPN1 (rhophilin associated tail protein 1)	3	1.42	inactive
ADIPOQ (adiponectin, C1Q and collagen domain containing)	1	0.543	inactive
ADIPOQ (adiponectin, C1Q and collagen domain containing)	2	0.264	inactive
ADIPOQ (adiponectin, C1Q and collagen domain containing)	3	-0.398	inactive

The list goes on (4 carried over from the part before).
Gene	reagent no.	G2 robust z-score	activity call
ROPN1 (rhophilin associated tail protein 1)	3	1.42	inactive
ADIPOQ (adiponectin, C1Q and collagen domain containing)	1	0.543	inactive
ADIPOQ (adiponectin, C1Q and collagen domain containing)	2	0.264	inactive
ADIPOQ (adiponectin, C1Q and collagen domain containing)	3	-0.398	inactive
RPP30 (ribonuclease P/MRP subunit p30)	1	-0.894	inactive
RPP30 (ribonuclease P/MRP subunit p30)	2	-1.13	inactive
RPP30 (ribonuclease P/MRP subunit p30)	3	-0.434	inactive
LOC728073 (retired record)	1	-1.28	inactive
LOC728073 (retired record)	2	0.208	inactive
LOC728073 (retired record)	3	-0.51	inactive
VAMP4 (vesicle associated membrane protein 4)	1	0.0136	inactive
VAMP4 (vesicle associated membrane protein 4)	2	0.887	inactive
VAMP4 (vesicle associated membrane protein 4)	3	0.137	inactive
PDZRN3 (PDZ domain containing ring finger 3)	1	-1.65	inactive
PDZRN3 (PDZ domain containing ring finger 3)	2	6.17	active
PDZRN3 (PDZ domain containing ring finger 3)	3	-0.217	inactive
KCNS2	1	-0.306	inactive
KCNS2	2	1.22	inactive
KCNS2	3	1.29	inactive
